In article PMC6411938:
Results are given in words; binding and its absence hold for the method and conditions named. In cells and extracts the contact can be indirect. A result given as binding can be weak or reduced; the word gives no strength. Tags and fused reporters may be left off the sequences shown.

Experiments:
[1] = molecular target: T1, FLAG-tagged PNLDC1, full-length mouse (mouse) (UniProt B2RXZ1); assay: co-IP; HEK293T cells transfected with the indicated plasmids; after 48 h lysates treated with or without RNase A (500 ug/ml); immunoprecipitation with anti-FLAG M2 Affinity Gel; FLAG- or GFP-tagged proteins detected by Western blotting
T1 sequence: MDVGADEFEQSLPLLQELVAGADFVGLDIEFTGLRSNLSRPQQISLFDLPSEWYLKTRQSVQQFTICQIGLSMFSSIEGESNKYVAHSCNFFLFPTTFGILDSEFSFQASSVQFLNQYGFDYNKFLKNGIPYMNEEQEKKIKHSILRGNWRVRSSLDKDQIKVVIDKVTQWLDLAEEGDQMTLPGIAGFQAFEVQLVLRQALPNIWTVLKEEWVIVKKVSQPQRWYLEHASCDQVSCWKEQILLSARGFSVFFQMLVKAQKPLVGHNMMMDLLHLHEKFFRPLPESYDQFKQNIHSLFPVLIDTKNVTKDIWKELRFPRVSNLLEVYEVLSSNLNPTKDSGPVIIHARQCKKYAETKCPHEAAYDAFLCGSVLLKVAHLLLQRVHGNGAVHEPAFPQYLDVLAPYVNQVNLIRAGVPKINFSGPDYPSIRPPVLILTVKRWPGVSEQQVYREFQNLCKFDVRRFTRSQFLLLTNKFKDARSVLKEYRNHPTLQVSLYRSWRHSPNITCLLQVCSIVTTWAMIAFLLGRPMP

[2] = molecular target: T2, FLAG-tagged TDRKH (Tudor and KH domain-containing protein), full-length mouse (mouse) (UniProt Q80VL1); assay: as above
T2 sequence: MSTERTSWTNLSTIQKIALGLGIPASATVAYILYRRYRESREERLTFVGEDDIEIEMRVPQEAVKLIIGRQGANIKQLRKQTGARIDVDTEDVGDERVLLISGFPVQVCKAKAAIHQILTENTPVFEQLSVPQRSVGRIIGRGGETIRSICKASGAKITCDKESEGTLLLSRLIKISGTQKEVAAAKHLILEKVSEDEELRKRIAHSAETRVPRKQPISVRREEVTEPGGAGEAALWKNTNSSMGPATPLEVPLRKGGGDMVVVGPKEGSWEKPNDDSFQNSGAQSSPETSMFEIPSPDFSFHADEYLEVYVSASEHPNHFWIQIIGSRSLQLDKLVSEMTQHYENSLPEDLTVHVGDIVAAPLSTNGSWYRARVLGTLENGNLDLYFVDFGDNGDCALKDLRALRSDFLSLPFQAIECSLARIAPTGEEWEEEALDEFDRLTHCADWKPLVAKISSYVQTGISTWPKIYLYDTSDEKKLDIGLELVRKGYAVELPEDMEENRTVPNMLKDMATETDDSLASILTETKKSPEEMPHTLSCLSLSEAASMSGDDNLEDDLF

Substance	binding [1]	binding [2]
GFP-MILI, full-length mouse	binds	binds
GFP-MIWI, full-length mouse	binds	binds
